Measured values as given in PubChem BioAssay AID2685 (National Center for Advancing Translational Sciences (NCATS), 2010).
About 2,100 (0.66%) of roughly 320,000 compounds were called active. The inconclusive results got no clear call from the source; some entries with a clear call stand among them for comparison. Calls follow the shape of the dose curve; as a rule, active = well fitted inhibition curve with a large enough effect in the signal ratio, with a control signal flat (not every such curve was filed as active); inconclusive = small, poorly fitted or top-dose-only effect, or effect the other way, or a change in a side signal; inactive = flat fitted curve, though single readings scatter; the % refers to the signal ratio. Potencies of inconclusive entries are doubtful fits and often do not repeat.

Assay: qHTS Assay for Lipid Storage Modulators in Drosophila S3 Cells
Settings: BODIPY lipid droplet fluorescence, 18-24 h, cells fed with added oleic acid; lipid storage change, negative = inhibition: at 46.1 µM (top of the series) unless noted
Method in brief: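 Drosophila S3 cells loaded with oleic acid (400 uM, as added) and compounds at several concentrations; lipid droplets imaged by 488-nm laser-scanning cytometry, 500–530 nm intensity and object ratio to cell channel. Percent activity normalized to 20 uM Triacsin C.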
% is scaled to controls: 0 for no effect and ±100 for the full control effect; potency is read from the fitted curve at half-maximal effect.

Compound | Potency | lipid storage change, negative = inhibition
O=C(Nc1cccc(C(=O)Nc2cccc(C(F)(F)F)c2)c1)c1ccc(=O)[nH]c1 | inconclusive: 29.1 µM [falling, single point] | 
CCCn1c(NC(=O)c2ccc(Cl)c(S(=O)(=O)N3CCCC3)c2)nc2ccccc21 |  | inconclusive: -21.3%
Cc1ccc(NC(=O)[C@H](C)NC(=O)C2CCN(C(=O)[C@@H](N)C(C)C)CC2)cc1 |  | inconclusive: 18.7%
Cc1cc2cc(CNC(=O)Nc3cccc(Cl)c3)ccc2n1C |  | inconclusive: 32.6%
Cc1ccc(N(C)C2=NC(=O)CS2)cc1Cl | inconclusive: 1.03 µM [activator, full curve] | 
O=C(Nn1cc(C(=O)Nc2ccccc2F)c2ccccc2c1=O)c1cnccn1 | inconclusive: 29.1 µM [cytotoxic, single point] | 
CC(C)n1nc(C(=O)NC2CCCCCC2)c2ccccc2c1=O |  | inconclusive: 5.08%
O=C(NC(=S)Nc1ccc(S(=O)(=O)Nc2nccs2)cc1)c1ccccc1F |  | inactive
Cc1cc([N+](=O)[O-])nn1CC(=O)NNC(=S)Nc1ccc(F)cc1 | inconclusive: 0.13 µM [activator, full curve, poor fit] | 
COc1ccc(S(=O)(=O)N2CCN(c3ccccn3)CC2)c(OC)c1 |  | inactive
Cn1cc2cc(NC(N)=S)ccc2n1 |  | inconclusive: 12.3%
CC(C)(C)c1cc[n+](C2=C([O-])c3ccccc3C(=O)/C2=N\S(=O)(=O)c2ccccc2)cc1 |  | inconclusive: -20.8%
COc1ccc(N2CCN(C(=O)COC(=O)c3ccc(CSC)o3)CC2)cc1 | inconclusive: 0.58 µM [falling, full curve, poor fit] | 
CCCN(CCC)Cc1c(C(=O)N/N=C/c2ccoc2)nnn1-c1nonc1N | inconclusive: 0.731 µM [activator, partial curve] | 
O=C(Nc1ccccc1)Nc1c(F)cccc1F | inconclusive: 18.4 µM [falling, single point] | 
Cc1nc(N2CCN(Cc3ccccc3)CC2)nc2c1CCC2 |  | inconclusive: 11.4%
O=C(c1cc(Cl)cc(Cl)c1)N1CCC(=O)N(C(COCc2ccccc2)Cc2ccccc2)CC1 (stereo unspecified) | inconclusive: 5.8 µM [activator, partial curve] | 
O=C(O)CC12CC3CC(C1)CC(n1ncc(NCc4ccco4)c(Cl)c1=O)(C3)C2 |  | inconclusive: -4.63%
Cc1ccsc1/C=N/N1CCN(c2ccccc2)CC1 |  | inconclusive: -3.83%
CC(=O)c1cccc(NC(=O)N2C3CCC2CC(NC(=O)Nc2ccccc2)C3)c1 (stereo unspecified) |  | inconclusive: 17%
Cc1cc(Cl)ccc1OCC(=O)Nc1cccc(S(=O)(=O)N2CCCC2)c1 |  | inconclusive: -32.4%
Cc1cc(C)n(C(C)CNS(=O)(=O)c2ccc(C)c(C)c2)n1 (stereo unspecified) |  | inconclusive: -100%
CC(C)(C)c1ccc(OCC(=O)N/N=C/c2ccsc2)cc1 |  | inconclusive: -29.3%
O=C(Nc1cccc(F)c1)Nc1c[nH]c(=O)[nH]c1=O |  | inconclusive: 304%
CCCN(CCC)C(C(=O)Nc1cccc(OC)c1)c1ccccc1 (stereo unspecified) |  | inconclusive: 20.4%
Cc1cc(C(F)F)n2ncc(C(=O)NCc3ccccc3)c2n1 |  | inconclusive: 12.6%

Compound | Potency | lipid storage change, negative = inhibition
Cc1nc2c(-c3ccc(F)cc3)c(C)nn2c(C)c1CCC(=O)N1CCOCC1 | inconclusive: 1.3 µM [activator, full curve, poor fit] | 
COc1cccc(-c2nc(CS(=O)(=O)CC(=O)NCCCN3CCN(C)CC3)c(C)o2)c1 |  | inconclusive: 22.8%
COc1cccc(C(=O)COC(=O)c2cccs2)c1 |  | inconclusive: 31.4%
COC(=O)CCC(=O)c1oc2ccccc2c1NC(=O)CCCN1C(=O)c2ccccc2C1=O |  | inconclusive: -13.5%
COc1ccc(NC(=O)CN2CCN(c3ccc(C)cc3C)CC2)cc1 | inconclusive: 29.1 µM [activator, partial curve, poor fit] | 
CCOC(=O)CNS(=O)(=O)Cc1ccccc1 |  | inconclusive: -43.4%
CCS(=O)(=O)c1ccc2c(c1)NC(=O)C(CCO)O2 (stereo unspecified) |  | inactive
CC1=NN(C(C#N)c2ccccc2C)C(C)(C)C1 (stereo unspecified) | inconclusive: 0.082 µM [falling, full curve, poor fit] | 
CC(=O)Nc1ccc(/C=N/Nc2ccc(C(=O)c3c(C)cc4ccccn34)cc2[N+](=O)[O-])cc1 | inconclusive: 4.61 µM [falling, full curve, poor fit] | 
CCCCNS(=O)(=O)c1ccc2nc(SCC(=O)Nc3sccc3C#N)[nH]c2c1 |  | inconclusive: -5.73%
CCOC(=O)c1cnc(SC2CC(=O)N(c3ccccc3)C2=O)nc1N (stereo unspecified) |  | inconclusive: 8.76%
Cc1nn(CC(=O)NC(=O)NC2CCCC(C)C2C)c(=O)c(C#N)c1C (stereo unspecified) |  | inconclusive: 8.72%
CC(=O)N1c2ccccc2C2(C)C(C1(C)C)C2(Cl)Cl (stereo unspecified) |  | inconclusive: -19.7%
COc1ccc(-n2c3c(c(=O)[nH]c2=O)C(NS(=O)(=O)c2ccc(Cl)cc2)(C(F)(F)F)C(=O)N3)cc1 (stereo unspecified) |  | inconclusive: -2.14%
COc1ccc(Cl)cc1N(CC(=O)Nc1ccccc1C(=O)N1CCCC1)S(C)(=O)=O |  | inconclusive: 18%
COCC(CN1CCN(C2=NS(=O)(=O)c3ccccc32)CC1)OC(=O)c1ccc(OC)cc1 (stereo unspecified) |  | inconclusive: -18.4%
COc1cc(/C=C/C(=O)N2CCCC2)cc(OC)c1OC | inconclusive: 6.51 µM [activator, single point] | 
O=C1c2ccccc2C(O)(c2ncc[nH]2)N1C1CCCCC1 (stereo unspecified) |  | inconclusive: -11.2%
CCCCOCC(O)CN1CCN(C(C)=O)CC1 (stereo unspecified) |  | inconclusive: -9.14%
O=C(COc1ccccc1[N+](=O)[O-])N/N=C/c1cccc(OC(=O)c2ccc3c(c2)OCO3)c1 | inconclusive: 16.4 µM [falling, single point] | 
O=C(NCc1ccc2c(c1)OCO2)C1CCC(=O)N1C1CCCCC1 (stereo unspecified) |  | inconclusive: 9.63%
COc1ccccc1CN1CCSCC1 | active: 23.1 µM | 
COc1ccc(/C=N/NC(=O)c2sc3nc(C)cc(C)c3c2N)cc1 | inconclusive: 0.146 µM [activator, full curve] | 
CC1=C(C(=O)Nc2cc(C(=O)N3CCN(c4cccc(C)c4)C(C)C3)ccc2C)SCCO1 (stereo unspecified) |  | inconclusive: 21.6%
C=CCN(c1ccccc1)S(=O)(=O)c1cccc(C(=O)NC2CCN(Cc3ccccc3)CC2)c1 |  | inconclusive: 25.2%
Cc1noc(C)c1COc1ccc(C(=O)OCC(=O)NC2CCCCC2C)cc1 (stereo unspecified) |  | inconclusive: -3.64%

Shown with tabs: part of the list above.
Compound	Potency	lipid storage change, negative = inhibition
O=C(NC(=S)Nc1ccc(S(=O)(=O)Nc2nccs2)cc1)c1ccccc1F		inactive
Cc1cc([N+](=O)[O-])nn1CC(=O)NNC(=S)Nc1ccc(F)cc1	inconclusive: 0.13 µM [activator, full curve, poor fit]	
COc1ccc(S(=O)(=O)N2CCN(c3ccccn3)CC2)c(OC)c1		inactive

More results:

Compound | Potency | lipid storage change, negative = inhibition
CCOc1ccc(N2C(=O)C3CCCN3C2=S)cc1 (stereo unspecified) |  | inconclusive: -62.9%
Cc1ccc(OCCN2CCNCC2)c([N+](=O)[O-])c1 | inconclusive: 0.517 µM [rising, full curve, poor fit] | 
C=CCN(c1ccc(C(=O)Nc2cc(C)cc(C)c2)cc1)S(C)(=O)=O |  | inconclusive: 21.7%
CCOC(=O)n1c(=O)n(Cc2ccccc2)c2ccccc21 | inconclusive: 9.2 µM [activator, partial curve] | 
CC1(C)CC(=O)C(CS(=O)(=O)c2ccccc2)=C(O)C1 |  | inconclusive: -10.5%
CC1CCCCC1NC(=O)CSc1nnc(-c2ccco2)n1C (stereo unspecified) |  | inconclusive: 1.39%
COc1ccc(Cl)cc1Nc1nc(-c2sc(NC(=O)C(C)(C)C)nc2C)cs1 |  | inconclusive: -26.6%
CC(=O)c1ccc(OCc2ccccc2)c(C)c1O | inconclusive: 16.4 µM [activator, single point] | 
O=C(Nc1ccccc1C(=O)O)c1cc(S(=O)(=O)N2CCOCC2)c(Br)s1 | inconclusive: 0.731 µM [activator, full curve] | 
CCn1cc(/C=C(\NC(=O)c2ccc(OC)c(OC)c2)C(=O)NCCCO)c2ccccc21 |  | inconclusive: -3.13%
CCOC(=O)C1(CCOc2ccccc2)CCN(Cc2cccc(OC)c2O)CC1 | inconclusive: 29.1 µM [falling, single point] | 
CC1CC(Nc2ccccc2N)=CC(=O)O1 (stereo unspecified) | inconclusive: 0.13 µM [cytotoxic, full curve, poor fit] | 
O=C(CN1CCOCC1)NNC(=S)Nc1ccc(Cl)cc1 |  | inconclusive: -1.31%
O=C(C1=C[C@@H](c2ccc(Br)cc2)C[C@@H](OCCCCO)O1)N1CCN(Cc2ccccc2)CC1 |  | inconclusive: -26.3%
CC1CCCC(C)N1C(=O)C1CCCCC1 (stereo unspecified) |  | inconclusive: -9.18%
Cc1ccccc1S(=O)(=O)Oc1cccc2c(O)cccc12 | inconclusive: 6.51 µM [falling, single point] | 
COC(=O)Cc1ccc(NC(=S)NCc2ccc(OC)cc2)cc1 |  | inconclusive: -39.3% [cytotoxic] [at 0.00295 µM]
CCOC(=O)c1cccc(NC(=O)CSc2nnc(C)n2CC2CCCO2)c1 (stereo unspecified) |  | inconclusive: -12.7%
CC(C)(C)c1ccc(SCCc2ccncc2)cc1 | inconclusive: 18.4 µM [cytotoxic, partial curve] | 
COc1ccc(C(=O)CCN2CCN(c3ccccc3F)CC2)cc1 |  | inconclusive: -13.9%
CCCC(C(=O)NC1CCCC1)N(C(=O)Cn1nnc(-c2ccc(C)o2)n1)c1ccccc1F (stereo unspecified) |  | inconclusive: -24.5%
CC1(C)Cc2c(C#N)c(NCCN3CCOCC3)nc(-c3ccccc3)c2CO1 | inconclusive: 2.91 µM [activator, full curve] | 
CCCCN(CC)S(=O)(=O)c1ccccc1 |  | inconclusive: -37.7%
CCCCCCCCn1c(N2CCN(c3cccc(Cl)c3)CC2)nc2c1c(=O)[nH]c(=O)n2C | inconclusive: 2.31 µM [activator, partial curve] | 
